According to US9588122B2, “Methods of treating cancer sensitive to anti-EGFR therapy and modifying treatment using peroxiredoxin 6 biomarker” (The Board of Trustees of the Leland Stanford Junior …, priority 2013, dated 2017):
For at least one compound, name, drawing or mass did not settle the structure.

Test system: A431
Experiment: Dose-dependent change in panel protein levels by western blot
Type: cell-based, human
Details: AKT or MAPK pathway inhibition

## O=c1cc(N2CCOCC2)oc2c(-c3ccccc3)cccc12 [LY294002]
  Claudin-1 expression: changes in expression
  panel proteins that showed a change in abundance: BAG4, CBFB, QARS, and TNFAIP2
  panel proteins unchanged by treatment: ELAVL-1, EpCAM, HSPG2, TROP2, and SNX5
